According to patent US20110281944A1, “METHOD OF A RHEIN COMPOUND FOR INHIBITING PANCREATIC ISLET BETA-CELL DYSFUNCTION AND PREVENTING OR TREATING A PANCREATIC ISLET BETA-CELL DYSFUNCTION RELATED DISORDER” (Research Institute of Nephrology of Nanjing PLA, China, priority 2010, published 2011):
Values joined by “and” are separate entries in the source; they are usually repeats but may differ in a detail not shown here. Identical values can stand only once. This continues a long series; more values of the same kind are listed elsewhere.

Experiment: Oral absorption kinetics and pharmacokinetics of rhein in rats
Type: in vivo, Wistar rats
Experimental: Grouping of the animals and experimental procedure: Eighteen Wistar rats (male: female=1:1; body weight=180˜210 g) are randomly divided into 3 groups, 6 animal each group (male 3, female 3). The animals are fastened but supplied with free water for 10 h, and then are administrated ig with 35 mg/kg, 70 mg/kg or 140 mg/kg rhein. Blood samples are collected from carotid artery cannula at 0.033 h, 0.083 h, 0.25 h, 0.5 h, 0.75 h, 1 h, 2 h, 3 h, 4 h, 6 h, 8 h, 12 h and 14 h after administration, and centrifuged. 50 μl plasma is used for HPLC-fluorescence (FLD) analysis. The obtained plasma rhein concentration-time data are used for calculating pharmacokinetic parameters via corresponding pharmacokinetic programmes.

O=C(O)c1cc(O)c2c(c1)C(=O)c1cccc(O)c1C2=O [rhein]
Plasma rhein concentration (gavage 70 mg/kg, 0.033 h, individual rats 1-6, 70 mg/kg): 34.64 µg/mL and 37.28 µg/mL and 24.38 µg/mL and 23.12 µg/mL and 14.12 µg/mL and 14.57 µg/mL | Plasma rhein concentration (gavage 70 mg/kg, 0.033 h, mean (x) of 6 rats): 24.68 µg/mL | Plasma rhein concentration (gavage 70 mg/kg, 0.083 h, individual rats 1-6, 70 mg/kg): 30.38 µg/mL and 48.63 µg/mL and 34.14 µg/mL and 42.68 µg/mL and 26.18 µg/mL and 22.27 µg/mL | Plasma rhein concentration (gavage 70 mg/kg, 0.083 h, mean (x) of 6 rats): 34.05 µg/mL | Plasma rhein concentration (gavage 70 mg/kg, 0.25 h, individual rats 1-6, 70 mg/kg): 38.86 µg/mL and 65.89 µg/mL and 62.98 µg/mL and 49.02 µg/mL and 24.12 µg/mL and 31.05 µg/mL | Plasma rhein concentration (gavage 70 mg/kg, 0.25 h, mean (x) of 6 rats): 45.32 µg/mL | Plasma rhein concentration (gavage 70 mg/kg, 0.50 h, individual rats 1-6, 70 mg/kg): 50.53 µg/mL and 43.37 µg/mL and 44.14 µg/mL and 56.14 µg/mL and 33.63 µg/mL and 52.37 µg/mL | Plasma rhein concentration (gavage 70 mg/kg, 0.50 h, mean (x) of 6 rats): 46.70 µg/mL | Plasma rhein concentration (gavage 70 mg/kg, 0.75 h, individual rats 1-6, 70 mg/kg): 30.33 µg/mL and 40.26 µg/mL and 34.20 µg/mL and 46.37 µg/mL and 24.94 µg/mL and 49.16 µg/mL | Plasma rhein concentration (gavage 70 mg/kg, 0.75 h, mean (x) of 6 rats): 37.54 µg/mL | Plasma rhein concentration (gavage 70 mg/kg, 2.0 h, individual rats 1-6, 70 mg/kg): 26.24 µg/mL and 26.80 µg/mL and 15.09 µg/mL and 12.71 µg/mL | Plasma rhein concentration (gavage 70 mg/kg, 2.0 h, mean (x) of 6 rats): 21.41 µg/mL | Plasma rhein concentration (gavage 70 mg/kg, 3.0 h, individual rats 1-6, 70 mg/kg): 13.61 µg/mL and 21.97 µg/mL and 27.09 µg/mL and 11.54 µg/mL and 16.35 µg/mL and 9.87 µg/mL | Plasma rhein concentration (gavage 70 mg/kg, 3.0 h, mean (x) of 6 rats): 16.74 µg/mL | Plasma rhein concentration (gavage 70 mg/kg, 4.0 h, individual rats 1-6, 70 mg/kg): 7.23 µg/mL and 12.76 µg/mL and 19.78 µg/mL and 13.32 µg/mL and 14.65 µg/mL and 10.51 µg/mL | Plasma rhein concentration (gavage 70 mg/kg, 4.0 h, mean (x) of 6 rats): 13.04 µg/mL | Plasma rhein concentration (gavage 70 mg/kg, 6.0 h, individual rats 1-6, 70 mg/kg): 4.81 µg/mL and 6.74 µg/mL and 18.98 µg/mL and 7.55 µg/mL and 3.85 µg/mL and 5.39 µg/mL | Plasma rhein concentration (gavage 70 mg/kg, 6.0 h, mean (x) of 6 rats): 7.89 µg/mL | Plasma rhein concentration (gavage 70 mg/kg, 8.0 h, individual rats 1-6, 70 mg/kg): 6.32 μg/ml (2×) and 7.32 μg/ml and 11.38 μg/ml and 6.09 μg/ml and 2.52 μg/ml | Plasma rhein concentration (gavage 70 mg/kg, 8.0 h, mean (x) of 6 rats): 6.66 µg/mL | Plasma rhein concentration (gavage 70 mg/kg, 12.0 h, individual rats 1-6, 70 mg/kg): 2.52 µg/mL and 5.62 µg/mL and 6.21 µg/mL and 4.94 µg/mL and 1.14 µg/mL and 2.79 µg/mL | Plasma rhein concentration (gavage 70 mg/kg, 12.0 h, mean (x) of 6 rats): 3.87 µg/mL | Plasma rhein concentration (gavage 70 mg/kg, 14.0 h, individual rats 1-6, 70 mg/kg): 0.44 µg/mL and 0.40 µg/mL and 0.93 µg/mL and 3.56 µg/mL and 1.75 µg/mL and 1.91 µg/mL | Plasma rhein concentration (gavage 70 mg/kg, 14.0 h, mean (x) of 6 rats): 1.50 µg/mL | Plasma rhein concentration (gavage 140 mg/kg, 0.033 h, individual rats 1-6, 140 mg/kg): 13.55 µg/mL and 21.88 µg/mL and 9.42 µg/mL and 14.25 µg/mL and 22.00 µg/mL and 13.23 µg/mL | Plasma rhein concentration (gavage 140 mg/kg, 0.033 h, mean (x) of 6 rats): 15.72 µg/mL | Plasma rhein concentration (gavage 140 mg/kg, 0.083 h, individual rats 1-6, 140 mg/kg): 30.55 µg/mL and 35.10 µg/mL and 46.58 µg/mL and 22.35 µg/mL and 50.52 µg/mL and 24.47 µg/mL | Plasma rhein concentration (gavage 140 mg/kg, 0.083 h, mean (x) of 6 rats): 34.93 µg/mL | Plasma rhein concentration (gavage 140 mg/kg, 0.25 h, individual rats 1-6, 140 mg/kg): 61.22 µg/mL and 59.53 µg/mL and 69.37 µg/mL and 27.07 µg/mL and 54.64 µg/mL and 64.74 µg/mL | Plasma rhein concentration (gavage 140 mg/kg, 0.25 h, mean (x) of 6 rats): 56.09 µg/mL | Plasma rhein concentration (gavage 140 mg/kg, 0.50 h, individual rats 1-6, 140 mg/kg): 51.20 µg/mL and 87.95 µg/mL and 82.06 µg/mL and 52.43 µg/mL and 31.95 µg/mL and 45.63 µg/mL | Plasma rhein concentration (gavage 140 mg/kg, 0.50 h, mean (x) of 6 rats): 58.54 µg/mL | Plasma rhein concentration (gavage 140 mg/kg, 0.75 h, individual rats 1-6, 140 mg/kg): 33.65 µg/mL and 64.91 µg/mL and 48.63 µg/mL and 44.00 µg/mL and 31.47 µg/mL and 39.56 µg/mL | Plasma rhein concentration (gavage 140 mg/kg, 0.75 h, mean (x) of 6 rats): 43.70 µg/mL | Plasma rhein concentration (gavage 140 mg/kg, 1.0 h, individual rats 1-6, 140 mg/kg): 30.46 µg/mL and 49.08 µg/mL and 43.04 µg/mL and 18.64 µg/mL and 24.25 µg/mL and 35.51 µg/mL | Plasma rhein concentration (gavage 140 mg/kg, 1.0 h, mean (x) of 6 rats): 33.50 µg/mL | Plasma rhein concentration (gavage 140 mg/kg, 2.0 h, individual rats 1-6, 140 mg/kg): 22.45 µg/mL and 35.15 µg/mL and 37.37 µg/mL and 14.29 µg/mL and 28.00 µg/mL and 37.98 µg/mL | Plasma rhein concentration (gavage 140 mg/kg, 2.0 h, mean (x) of 6 rats): 29.21 µg/mL | Plasma rhein concentration (gavage 140 mg/kg, 3.0 h, individual rats 1-6, 140 mg/kg): 20.79 µg/mL and 25.58 µg/mL and 28.39 µg/mL and 16.91 µg/mL and 17.23 µg/mL and 24.19 µg/mL | Plasma rhein concentration (gavage 140 mg/kg, 3.0 h, mean (x) of 6 rats): 22.18 µg/mL | Plasma rhein concentration (gavage 140 mg/kg, 4.0 h, individual rats 1-6, 140 mg/kg): 15.52 µg/mL and 24.69 µg/mL and 20.82 µg/mL and 16.50 µg/mL and 26.59 µg/mL and 18.69 µg/mL | Plasma rhein concentration (gavage 140 mg/kg, 4.0 h, mean (x) of 6 rats): 20.47 µg/mL | Plasma rhein concentration (gavage 140 mg/kg, 6.0 h, individual rats 1-6, 140 mg/kg): 10.85 µg/mL and 19.98 µg/mL and 20.49 µg/mL and 17.58 µg/mL and 17.34 µg/mL and 19.34 µg/mL | Plasma rhein concentration (gavage 140 mg/kg, 6.0 h, mean (x) of 6 rats): 17.59 µg/mL | Plasma rhein concentration (gavage 140 mg/kg, 8.0 h, individual rats 1-6, 140 mg/kg): 6.47 µg/mL and 15.42 µg/mL and 14.46 µg/mL and 10.29 µg/mL and 13.74 µg/mL and 11.21 µg/mL | Plasma rhein concentration (gavage 140 mg/kg, 8.0 h, mean (x) of 6 rats): 11.93 µg/mL | Plasma rhein concentration (gavage 140 mg/kg, 12.0 h, individual rats 1-6, 140 mg/kg): 4.11 µg/mL and 2.48 µg/mL and 4.35 µg/mL and 6.63 µg/mL and 11.63 µg/mL and 6.14 µg/mL | Plasma rhein concentration (gavage 140 mg/kg, 12.0 h, mean (x) of 6 rats): 5.89 µg/mL | Plasma rhein concentration (gavage 140 mg/kg, 14.0 h, individual rats 1-6, 140 mg/kg): 3.40 µg/mL and 3.15 µg/mL and 4.05 µg/mL and 4.81 µg/mL and 6.83 µg/mL and 4.27 µg/mL | Plasma rhein concentration (gavage 140 mg/kg, 14.0 h, mean (x) of 6 rats): 4.42 µg/mL
